Assay results published in PubChem BioAssay AID248 (DTP/NCI, 2004).
The list shows only some results of the screen, not a fair sample: it is rich in T/C values a quarter to a half above the control, in often repeated tests (any T/C) and in doses without a T/C. Other doses and runs of a compound stand elsewhere. T/C: endpoint of the treated group in % of that of the vehicle group. Some entries give survivors of the animals treated and no T/C: the source holds a T/C of zero for them, seemingly a mark for toxic or unscored doses. Some doses without a T/C left all or most animals alive at the check, yet need not have been tolerated: the source hardly ever lists a survival T/C far under the control, and the zero likely stands for such cases as well. Survivors were counted at the toxicity check, usually on the fifth day, unless a day is given; later deaths do not show. Schedule codes are those of the source, taken here to give the interval after Q, in days (D) or hours (H), and the number of doses after X. Some schedules carry Z or #; the key to these is not given. Some entries hold several experiments; the values are given in rising order. Where survival is the endpoint, this PubChem deposit counts one and a half times the control or more as active, and values a quarter to a half above the control carry no call in these data; other NCI protocols may use other cut-offs. Signs of the kind (2×) count equal records among those shown. Some T/C values are followed by the survivors on the day toxicity was checked, most often the fifth; where none is given, no animal had died by that day.

Tested on: L1210 leukemia ip in BDF1 mice, survival T/C
Assay: NCI In Vivo Anticancer Drug Screen. Data for tumor model L1210 Leukemia (intraperitoneal) in B6D2F1 (BDF1) mice
Conditions: T/C endpoint: mean survival time, vehicle: saline, higher T/C = longer survival
[1] = dose: 134.0 mg/kg/injection, schedule: Q01DX001 (ip)
[2] = dose: 200.0 mg/kg/injection, schedule: Q01DX001 (ip)
[3] = dose: 400.0 mg/kg/injection, schedule: Q01DX001 (ip)

CSc1ncnc2c1ncn2C1OC(CO)C(O)C1O (configuration not stated)
T/C (dose: 25.0 mg/kg/injection, schedule: Q01DX009 (ip)): 136 % of control
T/C (dose: 26.0 mg/kg/injection, schedule: Q01DX015 (ip)): 133 % of control (2×)
T/C (dose: 26.0 mg/kg/injection, schedule: Q07DX003 (ip)): 126 and 131 % of control
T/C (dose: 27.0 mg/kg/injection, schedule: Q01DX009 (ip), evaluated on day 5): 158 and 159 % of control
T/C (dose: 27.0 mg/kg/injection, schedule: Q01DX009 (ip), evaluated on day 45): 158 and 159 % of control
T/C (dose: 30.0 mg/kg/injection, schedule: Q01DX015 (ip)): 142 % of control
T/C (dose: 30.0 mg/kg/injection, schedule: Q02DX008 (ip)): 127 % of control
T/C (dose: 31.0 mg/kg/injection, schedule: Q01DX015 (ip)): 140, 151, 152, 154, 183 % of control
T/C (dose: 32.0 mg/kg/injection, schedule: Q01DX009 (ip)): 94, 116, 134, 185 % of control
survivor count (dose: 32.0 mg/kg/injection, schedule: Q01DX010 (ip)): 6 of 6
T/C (dose: 32.0 mg/kg/injection, schedule: Q01DX015 (ip), evaluated on day 5): 103, 115, 121, 122, 129, 146, 151, 156, 160 % of control
T/C (dose: 32.0 mg/kg/injection, schedule: Q01DX015 (ip), evaluated on day 35): 129 % of control
T/C (dose: 32.0 mg/kg/injection, schedule: Q01DX015 (ip), evaluated on day 45): 121 % of control
T/C (dose: 32.0 mg/kg/injection, schedule: Q01DX Z (ip)): 148 % of control
T/C (dose: 32.0 mg/kg/injection, schedule: Q## X032 (ip)): 128 % of control
survivor count (dose: 32.0 mg/kg/injection, schedule: Q#A X Z (ip)): 6 of 6
T/C (dose: 40.0 mg/kg/injection, schedule: Q12HX010 (ip)): 131 % of control
survivor count (dose: 40.0 mg/kg/injection, schedule: Q#A X034 (ip)): 1 of 10
T/C (dose: 41.0 mg/kg/injection, schedule: Q01DX009 (ip), evaluated on day 5): 107 and 116 % of control
T/C (dose: 41.0 mg/kg/injection, schedule: Q01DX009 (ip), evaluated on day 45): 107 and 116 % of control
T/C (dose: 45.0 mg/kg/injection, schedule: Q## X004 (ip)): 140 % of control
T/C (dose: 47.0 mg/kg/injection, schedule: Q01DX015 (ip), evaluated on day 5): 81, 95 (2×), 96, 98, 99 (3×), 103, 110, 112, 113, 115 % of control
T/C (dose: 47.0 mg/kg/injection, schedule: Q01DX015 (ip), evaluated on day 35): 96 % of control
T/C (dose: 47.0 mg/kg/injection, schedule: Q01DX015 (ip), evaluated on day 45): 115 % of control
survivor count (dose: 47.0 mg/kg/injection, schedule: Q## X015 (ip)): 10 of 10
T/C (dose: 48.0 mg/kg/injection, schedule: Q## X032 (ip)): 132 and 144 % of control
T/C (dose: 50.0 mg/kg/injection, schedule: Q01DX001 (ip)): 127 % of control
survivor count (dose: 50.0 mg/kg/injection, schedule: Q01DX005 (ip)): 5 of 6
T/C (dose: 52.0 mg/kg/injection, schedule: Q07DX003 (ip)): 134 and 137 % of control
T/C (dose: 60.0 mg/kg/injection, schedule: Q01DX001 (ip)): 133 % of control [7 of 10 alive]
T/C (dose: 64.0 mg/kg/injection, schedule: Q01DX006 (iv)): 126 and 140 % of control
survivor count (dose: 64.0 mg/kg/injection, schedule: Q01DX010 (ip)): 2 of 6
survivor count (dose: 64.0 mg/kg/injection, schedule: Q01DX Z (ip)): 6 of 6
T/C (dose: 67.0 mg/kg/injection, schedule: Q02DX008 (ip)): 140 % of control
T/C (dose: 67.0 mg/kg/injection, schedule: Q## X004 (ip)): 143 % of control
T/C (dose: 72.0 mg/kg/injection, schedule: Q## X032 (ip)): 145 % of control
T/C (dose: 80.0 mg/kg/injection, schedule: Q12HX006 (ip)): 145 % of control
T/C (dose: 90.0 mg/kg/injection, schedule: Q01DX001 (ip)): 125 % of control
T/C (dose: 90.0 mg/kg/injection, schedule: Q03DX006 (ip)): 139 % of control
T/C (dose: 91.0 mg/kg/injection, schedule: Q01DX001 (ip)): 126 % of control
T/C (dose: 91.0 mg/kg/injection, schedule: Q## X001 (ip)): 128 % of control
T/C (dose: 92.0 mg/kg/injection, schedule: Q01DX001 (ip)): 127 % of control
T/C (dose: 100.0 mg/kg/injection, schedule: Q01DX001 (ip)): 125 (2×) and 137 % of control
survivor count (dose: 100.0 mg/kg/injection, schedule: Q01DX003 (ip)): 6 of 10
survivor count (dose: 100.0 mg/kg/injection, schedule: Q01DX005 (ip)): 1 of 6
survivor count (dose: 100.0 mg/kg/injection, schedule: Q01DX009 (ip)): 5 of 6
survivor count (dose: 120.0 mg/kg/injection, schedule: Q01DX Z (oral)): 3 of 6
T/C (dose: 121.0 mg/kg/injection, schedule: Q01DX001 (ip), evaluated on day 46): 144 % of control
T/C (dose: 121.0 mg/kg/injection, schedule: Q01DX001 (ip), run until all animals had died): 141 % of control
T/C (dose: 121.0 mg/kg/injection, schedule: Q## X001 (ip)): 139 % of control
T/C (dose: 128.0 mg/kg/injection, schedule: Q01DX006 (iv)): 125 % of control
T/C [1]: 132 % of control
survivor count [1]: 6 of 10
survivor count (dose: 167.0 mg/kg/injection, schedule: Q01DX001 (ip)): 4 of 10
T/C [2]: 139, 142, 145 [8 of 9 alive], 148 % of control [5 of 6 alive]
survivor count [2]: 1 of 10 and 6 of 10
survivor count (dose: 200.0 mg/kg/injection, schedule: Q01DX005 (ip)): 0 of 6
survivor count (dose: 200.0 mg/kg/injection, schedule: Q01DX009 (ip)): 1 of 6
T/C (dose: 207.0 mg/kg/injection, schedule: Q01DX001 (ip)): 147 % of control [8 of 10 alive]
survivor count (dose: 240.0 mg/kg/injection, schedule: Q01DX Z (oral)): 6 of 6
T/C (dose: 274.0 mg/kg/injection, schedule: Q01DX001 (ip)): 131 % of control [8 of 10 alive]
T/C (dose: 300.0 mg/kg/injection, schedule: Q01DX001 (ip)): 142 % of control [9 of 10 alive]
T/C (dose: 300.0 mg/kg/injection, schedule: Q07DX003 (ip)): 131 % of control [5 of 6 alive]
survivor count (dose: 360.0 mg/kg/injection, schedule: Q03DX006 (ip)): 1 of 6 and 2 of 6
T/C [3]: 144 and 147 % of control
survivor count [3]: 0 of 10 and 2 of 6
survivor count (dose: 400.0 mg/kg/injection, schedule: Q07DX003 (ip)): 2 of 6
survivor count (dose: 420.0 mg/kg/injection, schedule: Q07DX003 (ip)): 3 of 6
survivor count (dose: 450.0 mg/kg/injection, schedule: Q01DX001 (ip)): 1 of 10
survivor count (dose: 720.0 mg/kg/injection, schedule: Q03DX006 (ip)): 0 of 6
survivor count (dose: 800.0 mg/kg/injection, schedule: Q01DX001 (ip)): 6 of 6
survivor count (dose: 1600.0 mg/kg/injection, schedule: Q01DX001 (ip)): 6 of 6
